Test results: article doi:10.1101/2023.04.12.536447
Read-outs that look alike come from different tables or passages of the source. Results are given in words; binding and its absence hold for the method and conditions named. Binding seen in cells or lysates may run through a third protein. Some binding calls cover weakened binding; strength is not graded here. Values belong to the molecule of their own block, whether it stands above or below them.

By UniProt entry, the sequences of proteins in these tests, tags left out.
UniProt P06804: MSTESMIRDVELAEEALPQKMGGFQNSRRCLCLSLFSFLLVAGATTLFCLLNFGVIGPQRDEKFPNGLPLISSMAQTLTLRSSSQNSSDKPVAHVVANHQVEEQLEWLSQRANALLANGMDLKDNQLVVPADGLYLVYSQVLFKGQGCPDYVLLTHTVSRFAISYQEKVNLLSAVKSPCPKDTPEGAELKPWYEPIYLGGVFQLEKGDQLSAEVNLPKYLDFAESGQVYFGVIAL

Key:
GFP-tagged TNFα [1] = molecular target: GFP-tagged TNFα (UniProt P06804); assay: co-IP
GFP-tagged TNFα [2] = molecular target: GFP-tagged TNFα (UniProt P06804); assay: co-IP; remark: listed apart in the source

binding (GFP-tagged TNFα [1]): binds
Molecule: SorLA-ΔFN3 (from UniProt Q92673 82-2214) (receptor)

binding (GFP-tagged TNFα [1]): binds
Molecule: SorLA-ΔEGF/β-propeller (from UniProt Q92673 82-2214) (receptor)

binding (GFP-tagged TNFα [1]): binds
Molecule: SorLA (full-length receptor) (from UniProt Q92673 82-2214)

Second part, the molecule before the results:

Molecule: SorLA-ΔCR (from UniProt Q92673 82-2214) (receptor)
binding (GFP-tagged TNFα [1]): binds

B1: SorLA-ΔVPS10P (domain or fragment, UniProt Q92673 754-2214)
chain: LAEENEFILYAVRKSIYRYDLASGATEQLPLTGLRAAVALDFDYEHNCLYWSDLALDVIQRLCLNGSTGQEVIINSGLETVEALAFEPLSQLLYWVDAGFKKIEVANPDGDFRLTIVNSSVLDRPRALVLVPQEGVMFWTDWGDLKPGIYRSNMDGSAAYHLVSEDVKWPNGISVDDQWIYWTDAYLECIERITFSGQQRSVILDNLPHPYAIAVFKNEIYWDDWSQLSIFRASKYSGSQMEILANQLTGLMDMKIFYKGKNTGSNACVPRPCSLLCLPKANNSRSCRCPEDVSSSVLPSGDLMCDCPQGYQLKNNTCVKQENTCLRNQYRCSNGNCINSIWWCDFDNDCGDMSDERNCPTTICDLDTQFRCQESGTCIPLSYKCDLEDDCGDNSDESHCEMHQCRSDEYNCSSGMCIRSSWVCDGDNDCRDWSDEANCTAIYHTCEASNFQCRNGHCIPQRWACDGDTDCQDGSDEDPVNCEKKCNGFRCPNGTCIPSSKHCDGLRDCSDGSDEQHCEPLCTHFMDFVCKNRQQCLFHSMVCDGIIQCRDGSDEDAAFAGCSQDPEFHKVCDEFGFQCQNGVCISLIWKCDGMDDCGDYSDEANCENPTEAPNCSRYFQFRCENGHCIPNRWKCDRENDCGDWSDEKDCGDSHILPFSTPGPSTCLPNYYRCSSGTCVMDTWVCDGYRDCADGSDEEACPLLANVTAASTPTQLGRCDRFEFECHQPKTCIPNWKRCDGHQDCQDGRDEANCPTHSTLTCMSREFQCEDGEACIVLSERCDGFLDCSDESDEKACSDELTVYKVQNLQWTADFSGDVTLTWMRPKKMPSASCVYNVYYRVVGESIWKTLETHSNKTNTVLKVLKPDTTYQVKVQVQCLSKAHNTNDFVTLRTPEGLPDAPRNLQLSLPREAEGVIVGHWAPPIHTHGLIREYIVEYSRSGSKMWASQRAASNFTEIKNLLVNTLYTVRVAAVTSRGIGNWSDSKSITTIKGKVIPPPDIHIDSYGENYLSFTLTMESDIKVNGYVVNLFWAFDTHKQERRTLNFRGSILSHKVGNLTAHTSYEISAWAKTDLGDSPLAFEHVMTRGVRPPAPSLKAKAINQTAVECTWTGPRNVVYGIFYATSFLDLYRNPKSLTTSLHNKTVIVSKDEQYLFLVRVVVPYQGPSSDYVVVKMIPDSRLPPRHLHVVHTGKTSVVIKWESPYDSPDQDLLYAVAVKDLIRKTDRSYKVKSRNSTVEYTLNKLEPGGKYHIIVQLGNMSKDSSIKITTVSLSAPDALKIITENDHVLLFWKSLALKEKHFNESRGYEIHMFDSAMNITAYLGNTTDNFFKISNLKMGHNYTFTVQARCLFGNQICGEPAILLYDELGSGADASATQAARSTDVAAVVVPILFLILLSLGVGFAILYTKHRRLQSSFTAFANSHYSSRLGSAIFSSGDDLGEDDEDAPMITGFSDDVPMVIA
binding (GFP-tagged TNFα [2]): binds
